Source: PMC4991852, “The Sac3 TPR-like region in the Saccharomyces cerevisiae TREX-2 complex is more extensive but independent of the CID region” (Journal of Structural Biology, 2016)
No constants are given. Whether binding was seen depends on the method and setting. For some of these results: In cells and extracts the contact can be indirect. Some binding calls cover weakened binding; strength is not graded here. For some of these results: Tags and fused reporters may be left off the sequences shown.

What was measured:
[1] = biological target: T1, Sac3 (residues 1-805), GST removed (S. cerevisiae) (UniProt P46674); test: SEC-SAXS; on-line HPLC with Superdex 200 Increase 3.2/300, beamline BM29 (ESRF), 20 °C; mass from I(0) against a BSA standard; both purified
T1 sequence (chain, minor phosphorylation, Ser71, Ser102, Ser592, Ser600, Ser684 (mass spectrometry)): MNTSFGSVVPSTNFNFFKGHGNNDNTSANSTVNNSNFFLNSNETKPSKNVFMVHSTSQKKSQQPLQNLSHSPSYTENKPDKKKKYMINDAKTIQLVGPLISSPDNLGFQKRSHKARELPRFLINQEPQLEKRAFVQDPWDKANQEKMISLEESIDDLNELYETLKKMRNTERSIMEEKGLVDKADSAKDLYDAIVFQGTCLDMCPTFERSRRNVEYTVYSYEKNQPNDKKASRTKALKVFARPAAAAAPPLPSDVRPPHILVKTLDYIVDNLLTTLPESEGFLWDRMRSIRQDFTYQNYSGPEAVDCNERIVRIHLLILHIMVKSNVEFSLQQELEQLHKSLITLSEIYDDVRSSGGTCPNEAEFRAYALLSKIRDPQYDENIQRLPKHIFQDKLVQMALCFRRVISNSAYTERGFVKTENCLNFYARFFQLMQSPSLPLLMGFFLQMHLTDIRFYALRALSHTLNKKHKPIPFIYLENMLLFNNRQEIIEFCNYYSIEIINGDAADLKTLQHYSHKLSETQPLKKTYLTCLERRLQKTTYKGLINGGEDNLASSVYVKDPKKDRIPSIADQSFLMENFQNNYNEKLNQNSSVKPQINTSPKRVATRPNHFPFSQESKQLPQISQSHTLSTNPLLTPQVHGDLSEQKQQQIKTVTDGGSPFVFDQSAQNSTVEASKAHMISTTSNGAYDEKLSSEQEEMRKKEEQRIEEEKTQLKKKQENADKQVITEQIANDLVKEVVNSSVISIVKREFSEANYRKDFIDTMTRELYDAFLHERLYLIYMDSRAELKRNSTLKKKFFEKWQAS

[2] = biological target: T2, Sac3^M (S. cerevisiae) (UniProt P46674); test: as above
T2 sequence: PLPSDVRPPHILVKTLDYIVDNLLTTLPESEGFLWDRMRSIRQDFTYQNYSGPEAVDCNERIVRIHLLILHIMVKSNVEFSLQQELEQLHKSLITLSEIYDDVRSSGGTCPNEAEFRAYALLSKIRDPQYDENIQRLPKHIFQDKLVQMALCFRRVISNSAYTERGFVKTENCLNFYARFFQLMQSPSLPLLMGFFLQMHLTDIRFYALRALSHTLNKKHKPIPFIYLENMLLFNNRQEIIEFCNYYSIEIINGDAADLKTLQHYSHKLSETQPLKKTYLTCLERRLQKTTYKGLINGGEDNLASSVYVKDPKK

[3] = biological target: T1, Sac3 (residues 1-805), GST removed (S. cerevisiae); test: cryo-EM structure; purified co-expressed TREX-2^1-805 complex at ~75 nM on graphene oxide coated holey carbon grids; 5.3 Å reconstruction of the M-region only; both purified
[4] = biological target: T1, Sac3 (residues 1-805), GST removed (S. cerevisiae); test: crystal structure; scTREX-2^ΔC at 16.5 mg/ml, 20% PEG 3350, 0.2 M Mg formate, crystals grew over 2 weeks; 4.9 Å; crystals probably hold a proteolytic fragment (Sac3 up to about residue 555, Thp1, Sem1); both purified
[5] = biological target: T1, Sac3 (residues 1-805), GST removed (S. cerevisiae); test: SEC; co-expressed complex after glutathione Sepharose, TEV and heparin; Superdex S200 26/60, 20 mM HEPES pH 8.0, 300 mM NaCl, 5 mM DTT; Coomassie-stained SDS-PAGE of fractions, identities by mass spectrometry; both purified
[6] = biological target: T3, GST-Sac3 (residues 1-805) (S. cerevisiae) (UniProt P46674); test: pull-down; GST-Sac3 co-expressed with Thp1, Sem1, Cdc31 and Sus1 in Sf9 from a single baculovirus; clarified lysate on glutathione Sepharose 4B, 50 mM Tris pH 8.0, 500 mM NaCl, 5 mM DTT; eluted by TEV cleavage; Coomassie-stained SDS-PAGE
T3 sequence (chain, minor phosphorylation, Ser71, Ser102, Ser592, Ser600, Ser684 (mass spectrometry)): T1 sequence (chain, minor phosphorylation, Ser71, Ser102, Ser592, Ser600, Ser684 (mass spectrometry))

[7] = biological target: T4, full-length Sac3 (residues 1–1301) (S. cerevisiae) (UniProt P46674); test: as above
T4 sequence: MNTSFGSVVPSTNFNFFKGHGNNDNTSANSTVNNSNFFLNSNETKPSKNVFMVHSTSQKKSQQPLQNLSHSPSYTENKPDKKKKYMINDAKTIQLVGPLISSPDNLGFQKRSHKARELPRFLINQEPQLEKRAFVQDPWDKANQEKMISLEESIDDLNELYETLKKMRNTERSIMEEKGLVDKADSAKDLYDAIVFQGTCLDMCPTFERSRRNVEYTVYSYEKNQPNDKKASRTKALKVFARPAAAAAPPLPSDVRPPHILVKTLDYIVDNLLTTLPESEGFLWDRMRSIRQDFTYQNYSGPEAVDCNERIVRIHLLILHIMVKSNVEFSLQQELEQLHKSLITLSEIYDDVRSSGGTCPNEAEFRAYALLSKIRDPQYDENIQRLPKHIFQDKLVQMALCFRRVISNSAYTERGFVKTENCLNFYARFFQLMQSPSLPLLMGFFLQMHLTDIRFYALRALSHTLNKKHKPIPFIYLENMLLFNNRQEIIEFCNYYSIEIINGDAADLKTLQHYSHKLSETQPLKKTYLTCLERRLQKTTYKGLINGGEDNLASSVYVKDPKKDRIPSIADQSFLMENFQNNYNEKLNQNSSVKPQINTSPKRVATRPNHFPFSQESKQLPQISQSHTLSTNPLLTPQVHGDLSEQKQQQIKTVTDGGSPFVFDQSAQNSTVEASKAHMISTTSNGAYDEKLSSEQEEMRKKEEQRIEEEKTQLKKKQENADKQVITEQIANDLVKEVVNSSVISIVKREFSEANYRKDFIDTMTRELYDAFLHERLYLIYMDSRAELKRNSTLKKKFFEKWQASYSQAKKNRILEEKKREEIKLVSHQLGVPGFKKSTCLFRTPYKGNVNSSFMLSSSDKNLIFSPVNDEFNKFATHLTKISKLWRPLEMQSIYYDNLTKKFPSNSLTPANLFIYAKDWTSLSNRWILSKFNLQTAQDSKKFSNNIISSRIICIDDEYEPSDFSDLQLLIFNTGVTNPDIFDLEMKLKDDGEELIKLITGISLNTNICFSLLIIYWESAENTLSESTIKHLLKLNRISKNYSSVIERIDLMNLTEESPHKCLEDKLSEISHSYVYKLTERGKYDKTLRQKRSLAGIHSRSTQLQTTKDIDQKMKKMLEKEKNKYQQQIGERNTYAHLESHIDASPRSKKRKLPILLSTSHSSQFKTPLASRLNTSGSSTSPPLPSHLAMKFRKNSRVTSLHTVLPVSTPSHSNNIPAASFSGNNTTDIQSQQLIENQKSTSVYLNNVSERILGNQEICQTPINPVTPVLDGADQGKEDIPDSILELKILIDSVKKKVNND

Measured: binding

B1: Sem1 (natural protein, S. cerevisiae, UniProt O94742 1-89, looked up)
chain: MSTDVAAAQAQSKIDLTKKKNEEINKKSLEEDDEFEDFPIDTWANGETIKSNAVTQTNIWEENWDDVEVDDDFTNELKAELDRYKRENQ
notes: Sem1, S. cerevisiae; source: Sf9, baculovirus, co-expressed with GST-Sac3; in lysate and purified with the complex (glutathione Sepharose, heparin, SEC)
binds: all assays above

B2: Cdc31 (natural protein, S. cerevisiae, UniProt P06704 1-161, looked up)
chain: MSKNRSSLQSGPLNSELLEEQKQEIYEAFSLFDMNNDGFLDYHELKVAMKALGFELPKREILDLIDEYDSEGRHLMKYDDFYIVMGEKILKRDPLDEIKRAFQLFDDDHTGKISIKNLRRVAKELGETLTDEELRAMIEEFDLDGDGEINENEFIAICTDS
notes: Cdc31, S. cerevisiae; source: Sf9, baculovirus, co-expressed with GST-Sac3; in lysate and purified with the complex (glutathione Sepharose, heparin, SEC)
binds: [1] | [5] | [6] | [7]

B3: Thp1 (natural protein, S. cerevisiae, UniProt Q08231 1-455, looked up)
chain: MDMANQLLDELAHGNFSHLTLNLSQNGREIAILQKQLTGFDDKQLETFVEQHPAMPNDTRFKIMCTSFLNYARDVDPWSAWSSSDLIFEFYQCLINCLINDNAPHIEMLIPVATRETEFIINLAGKLDSFHLQLHTRSHQFLSHISSILSRLFNSIKPPRGNASSTNIPGKQRILLYLVNKLNNIYFRIESPQLCSNIFKNFQPKSMLAHFNEYQLDQQIEYRYLLGRYYLLNSQVHNAFVQFNEAFQSLLNLPLTNQAITRNGTRILNYMIPTGLILGKMVKWGPLRPFLSQETIDNWSVLYKHVRYGNIQGVSLWLRQNERHLCARQLLIVLLEKLPMVTYRNLIKTVIKSWTTEWGQNKLPYSLIERVLQLSIGPTFEDPGAQEITIYNGIHSPKNVENVLVTLINLGLLRANCFPQLQLCVVKKTTMIQEIVPPVNERITKMFPAHSHVLW
notes: Thp1, S. cerevisiae; The theoretical mass of 195 kDa for TREX-2^1-805 fits whole chains of the four small subunits; source: Sf9, baculovirus, co-expressed with GST-Sac3; in lysate and purified with the complex (glutathione Sepharose, heparin, SEC)
binds: all assays above

B4: Sus1 (natural protein, S. cerevisiae, UniProt Q6WNK7 1-96, looked up)
chain: MTMDTAQLKSQIQQYLVESGNYELISNELKARLLQEGWVDKVKDLTKSEMNINESTNFTQILSTVEPKALEMVSDSTRETVLKQIREFLEEIVDTQ
notes: Sus1, S. cerevisiae; source: Sf9, baculovirus, co-expressed with GST-Sac3; in lysate and purified with the complex (glutathione Sepharose, heparin, SEC)
binds: [1] | [5] | [6] | [7]
